Measurements: paper doi:10.1101/2021.05.24.445526
These are yes or no findings as the source states them, for the method shown. In cells and extracts the contact can be indirect. Some entries that bind do so weakly or less than the wild type.

By UniProt entry, the sequences of proteins in these tests, tags left out.
UniProt P20963: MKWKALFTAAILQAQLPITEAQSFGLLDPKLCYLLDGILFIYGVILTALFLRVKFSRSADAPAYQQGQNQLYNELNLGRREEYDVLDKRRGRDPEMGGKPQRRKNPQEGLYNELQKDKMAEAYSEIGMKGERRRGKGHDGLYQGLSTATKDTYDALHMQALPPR
UniProt P29350: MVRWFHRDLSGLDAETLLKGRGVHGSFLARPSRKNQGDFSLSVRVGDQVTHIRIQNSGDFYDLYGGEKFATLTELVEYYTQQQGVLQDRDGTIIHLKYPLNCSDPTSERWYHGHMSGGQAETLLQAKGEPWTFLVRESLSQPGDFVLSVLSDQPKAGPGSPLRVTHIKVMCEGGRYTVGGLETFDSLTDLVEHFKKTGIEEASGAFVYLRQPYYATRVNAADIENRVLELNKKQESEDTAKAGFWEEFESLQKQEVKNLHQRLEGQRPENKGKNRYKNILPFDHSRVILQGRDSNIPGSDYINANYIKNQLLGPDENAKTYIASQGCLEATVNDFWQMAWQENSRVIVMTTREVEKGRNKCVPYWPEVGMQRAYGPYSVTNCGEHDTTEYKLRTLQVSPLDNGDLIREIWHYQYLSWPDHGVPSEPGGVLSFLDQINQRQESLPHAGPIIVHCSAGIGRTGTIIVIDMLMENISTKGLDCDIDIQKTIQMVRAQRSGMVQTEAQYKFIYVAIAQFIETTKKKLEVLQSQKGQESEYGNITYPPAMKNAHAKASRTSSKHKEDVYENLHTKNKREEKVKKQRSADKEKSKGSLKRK

Target: TCR-ζ chain (human (endogenous in Jurkat)) (UniProt P20963)
Experiment: co-IP

How did the binding turn out when SHP1 (from UniProt P29350 1-595) was run?
The binding was “binds”.
